For this assay, the target named is GST fusion of the cytoplasmic domain of K15-P, wild type (Kaposi's Sarcoma Herpesvirus (KSHV, HHV8)). As to the kind of experiment: pull-down; GST fusion proteins on glutathione sepharose beads incubated with cleared HEK293T lysates (TBS-T) overnight at 4°C; bound endogenous PLCγ1 detected by Western blot; only the target purified.

These are yes or no findings as the source states them, for the method shown. Binding seen in cells or lysates may run through a third protein. Binding can be weak; no strength is given.

B1: Phospholipase C γ1 (PLCγ1), endogenous (enzyme, UniProt P19174 1-1290)
chain: MAGAASPCANGCGPGAPSDAEVLHLCRSLEVGTVMTLFYSKKSQRPERKTFQVKLETRQITWSRGADKIEGAIDIREIKEIRPGKTSRDFDRYQEDPAFRPDQSHCFVILYGMEFRLKTLSLQATSEDEVNMWIKGLTWLMEDTLQAPTPLQIERWLRKQFYSVDRNREDRISAKDLKNMLSQVNYRVPNMRFLRERLTDLEQRSGDITYGQFAQLYRSLMYSAQKTMDLPFLEASTLRAGERPELCRVSLPEFQQFLLDYQGELWAVDRLQVQEFMLSFLRDPLREIEEPYFFLDEFVTFLFSKENSVWNSQLDAVCPDTMNNPLSHYWISSSHNTYLTGDQFSSESSLEAYARCLRMGCRCIELDCWDGPDGMPVIYHGHTLTTKIKFSDVLHTIKEHAFVASEYPVILSIEDHCSIAQQRNMAQYFKKVLGDTLLTKPVEISADGLPSPNQLKRKILIKHKKLAEGSAYEEVPTSMMYSENDISNSIKNGILYLEDPVNHEWYPHYFVLTSSKIYYSEETSSDQGNEDEEEPKEVSSSTELHSNEKWFHGKLGAGRDGRHIAERLLTEYCIETGAPDGSFLVRESETFVGDYTLSFWRNGKVQHCRIHSRQDAGTPKFFLTDNLVFDSLYDLITHYQQVPLRCNEFEMRLSEPVPQTNAHESKEWYHASLTRAQAEHMLMRVPRDGAFLVRKRNEPNSYAISFRAEGKIKHCRVQQEGQTVMLGNSEFDSLVDLISYYEKHPLYRKMKLRYPINEEALEKIGTAEPDYGALYEGRNPGFYVEANPMPTFKCAVKALFDYKAQREDELTFIKSAIIQNVEKQEGGWWRGDYGGKKQLWFPSNYVEEMVNPVALEPEREHLDENSPLGDLLRGVLDVPACQIAIRPEGKNNRLFVFSISMASVAHWSLDVAADSQEELQDWVKKIREVAQTADARLTEGKIMERRKKIALELSELVVYCRPVPFDEEKIGTERACYRDMSSFPETKAEKYVNKAKGKKFLQYNRLQLSRIYPKGQRLDSSNYDPLPMWICGSQLVALNFQTPDKPMQMNQALFMTGRHCGYVLQPSTMRDEAFDPFDKSSLRGLEPCAISIEVLGARHLPKNGRGIVCPFVEIEVAGAEYDSTKQKTEFVVDNGLNPVWPAKPFHFQISNPEFAFLRFVVYEEDMFSDQNFLAQATFPVKGLKTGYRAVPLKNNYSEDLELASLLIKIDIFPAKENGDLSPFSGTSLRERGSDASGQLFHGRAREGSFESRYQQPFEDFRISQEHLADHFDSRERRAPRRTRVNGDNRL
As to B1, the binding entry is “binds”.

The values above are taken from article PMC3460623.
